This is an account of results in the supplement of paper PMC8256030.

Molecules are shown by their SMILES. Where “and” joins values, the source holds several entries; their conditions need not be identical. Equal values may be shown once. This is one part of the list. This data set is noisy: repeats of one test often differ as much as different tests do.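 HEK293T cells were given each compound shortly before transfection with a reporter in which red mCherry is followed by the SARS-CoV-2 frameshift element and then GFP in the −1 frame, so GFP appears only after frameshifting.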

Assay [1] concerns SARS-CoV-2 -1 PRF reporter mCherry-FSE-GFP(-1). The assay is described as follows: mCherry (red) intensity as percent of control; higher = higher upstream reporter expression. Conditions: 10 µM; 24 h; HEK293T.
Assay [2] has the same test system. Description: percent effect, decrease of GFP/mCherry ratio (-1 PRF reporter) relative to controls; higher = stronger frameshift inhibition. Conditions: 10 µM; 24 h; HEK293T.

`O[C@@H]1CO[C@H]2[C@@H]1OC[C@@H]2O` [isosorbide] displayed a mCherry in assay [1] of 117%. The percent effect in assay [2] was 1.14%.

The compound `COc1ccc(C(=O)c2ccccc2O)c(O)c1` [dioxybenzone] displayed a mCherry in assay [1] of 119%. Also, the percent effect in assay [2] was -6.85%.

`O=C1O[C@H]([C@@H](O)CO)C(O)=C1O` [ascorbic acid] gave a mCherry in assay [1] of 83.3%. For the same compound, the percent effect in assay [2] was -10.2%.

For the compound `Cc1ccc(-c2cc(C(F)(F)F)nn2-c2ccc(S(N)(=O)=O)cc2)cc1` [celecoxib], in assay [1], the mCherry is 94.6% and 92.1%. Besides, the percent effect in assay [2] is -4.17% and -5.17%.

`C=C1C[C@H]2[C@@H]3C=C(C)C4=CC(=O)CC[C@]4(C)[C@H]3CC[C@]2(C)[C@@]1(OC(C)=O)C(C)=O` gave a mCherry in assay [1] of 99%. For the same compound, the percent effect in assay [2] was -18.2%.

With `CCOC(=O)C1=C[C@@H](OC(CC)CC)[C@H](NC(C)=O)[C@@H](N)C1`, the mCherry in assay [1] turned out to be 111%. Besides, the percent effect in assay [2] is -1.95%.

On to `C=COCC(F)(F)F` [fluroxene], for which the mCherry in assay [1] was 105%. The percent effect in assay [2] was -5.39%.

In turn, `CCCCN1CCC(CNC(=O)c2c3n(c4ccccc24)CCCO3)CC1` [piboserod] had a mCherry in assay [1] of 95.8%. For the same compound, the percent effect in assay [2] is -1.93%.

Consider `CC(C)(Oc1ccc(Cl)cc1)C(=O)OCCOC(=O)c1cccnc1` [etofibrate], for which, in assay [1], the mCherry was 91.6%. In addition, in assay [2], the percent effect was -3.29%.

In assay [1], `N#CC(c1ccc(Cl)cc1)c1ccc(-n2ncc(=O)[nH]c2=O)cc1Cl` (stereo not drawn) [clazuril] showed a mCherry of 107%. For the same compound, the percent effect in assay [2] came to 0.981%.

With `C[C@@H](O)[C@H]1C(=O)N2C(C(=O)O)=C(S[C@@H]3CN[C@H](C(=O)Nc4cccc(C(=O)O)c4)C3)[C@H](C)[C@H]12` [ertapenem], the mCherry in assay [1] came out at 106%. The percent effect in assay [2] came out at 2.17%.

For `Cc1oc(-c2ccccc2)nc1CCC(=O)c1ccc(CC2SC(=O)NC2=O)cc1` (stereo not drawn) [darglitazone], in assay [1], the mCherry stood at 108%. Further, the percent effect in assay [2] was -4.21%.

Consider `CC(C)C(=O)Nc1ccc([N+](=O)[O-])c(C(F)(F)F)c1` [flutamide], for which the mCherry in assay [1] is 101% and 87%. For the same compound, the percent effect in assay [2] was -2.38% and -13.6%.

The compound `COc1c2ccoc2cc2oc(=O)ccc12` gave a mCherry in assay [1] of 104%. For the same compound, the percent effect in assay [2] is -0.52%.

Take `CO/N=C(\C(=O)N[C@@H]1C(=O)N2C(C(=O)O)=C(CSc3nnnn3C)CS[C@H]12)c1csc(N)n1` [Cefmenoxime]: the mCherry in assay [1] was 72.6%. In addition, the percent effect in assay [2] is -4.49%.

Compound `CN[C@H]1CC[C@@H](c2ccc(Cl)c(Cl)c2)c2ccccc21` came in with a mCherry in assay [1] of 130%. Moreover, the percent effect in assay [2] is -1.38%.

`CC(C)n1c(/C=C/C(O)CC(O)CC(=O)O)c(-c2ccc(F)cc2)c2ccccc21` (stereo not drawn) [Fluvastatin] came in with a mCherry in assay [1] of 132%. In addition, the percent effect in assay [2] was -0.601%.

Regarding `C[C@]12C[C@H](O)[C@H]3[C@@H](CCC4=CC(=O)CC[C@@]43C)[C@@H]1CC[C@@H]2C(=O)CO` [Corticosterone], the mCherry in assay [1] was 88.1%. For the same compound, the percent effect in assay [2] was -0.762%.

Compound `O=c1c2c(c1=O)N(CCP(=O)(O)O)CCCN2` [perzinfotel] had a mCherry in assay [1] of 96.7%. Moreover, in assay [2], the percent effect is -8.03%.

As for `NCc1ccc(S(N)(=O)=O)cc1` [mafenide], in assay [1], the mCherry is 127%. Moreover, the percent effect in assay [2] amounted to 2.97%.

`CCC(C)(Oc1ccc(C2(c3ccc(OC(C)(CC)C(=O)O)cc3)CCCCC2)cc1)C(=O)O` (stereo not drawn) [clinofibrate] returned a mCherry in assay [1] of 78.7%. Moreover, the percent effect in assay [2] is 0.137%.

`CC(C)(Oc1ccc(C2CC2(Cl)Cl)cc1)C(=O)O` (stereo not drawn) [ciprofibrate]: the mCherry in assay [1] was 120%. The percent effect in assay [2] was -10.6%.

As for `COC[C@@H](c1ccc(C(F)(F)F)cc1)N1CCN(C2(C)CCN(C(=O)c3c(C)ncnc3C)CC2)C[C@@H]1C` [vicriviroc], the mCherry in assay [1] worked out at 102%. Moreover, the percent effect in assay [2] is -5.01%.

The compound `[O-][n+]1cccc(CO)c1` [mepiroxol] came in with a mCherry in assay [1] of 106%. Moreover, in assay [2], the percent effect is -2.66%.

Consider `C[C@]12CCC(=O)C=C1CC[C@@H]1[C@@H]2[C@@H](O)C[C@]2(C=O)[C@@H](C(=O)CO)CC[C@@H]12` [aldosterone], for which, in assay [1], the mCherry was found to be 84.6%. In addition, in assay [2], the percent effect was -5.85%.

In assay [1], `CCCCN(CCCC)CC(O)c1cc(Cl)cc2c1-c1ccc(Cl)cc1/C2=C/c1ccc(Cl)cc1` (stereo not drawn) [lumefantrine] had a mCherry of 108%. For the same compound, the percent effect in assay [2] is -7.88%.

Regarding `CC(=O)Nc1c(I)cc(I)c(C(=O)O)c1I`, the mCherry in assay [1] is 113%. Besides, in assay [2], the percent effect is -2.39%.

With `C1CCN2C[C@@H]3C[C@@H](CN4CCCC[C@@H]34)[C@H]2C1` [(-)-Sparteine], the mCherry in assay [1] came out at 97.7%. In addition, in assay [2], the percent effect amounted to 2.58%.

As for `C/C(=C\C(=O)OCCCCCCCCC(=O)O)C[C@@H]1OC[C@H](C[C@@H]2O[C@H]2[C@@H](C)[C@H](C)O)[C@@H](O)[C@H]1O` [mupirocin], in assay [1], the mCherry was 95.9% and 95.4%. Besides, the percent effect in assay [2] was -4.61% and -1.07%.

The compound `CC(=O)[C@@]1(O)CC[C@H]2[C@@H]3C=C(Cl)C4=CC(=O)[C@@H]5C[C@@H]5[C@]4(C)[C@H]3CC[C@@]21C` registered a mCherry in assay [1] of 101%. Further, the percent effect in assay [2] stood at 0.783%.

The compound `Cc1cc(NS(=O)(=O)c2ccc(N)cc2)nc(C)n1` [sulfisomidine] registered a mCherry in assay [1] of 111%. Further, the percent effect in assay [2] is -3.28%.

In assay [1], `COC(=O)C1=C(C)NC(C)=C(C(=O)OC/C=C/c2ccccc2)C1c1cccc([N+](=O)[O-])c1` (stereo not drawn) [pranidipine] returned a mCherry of 110%. Moreover, in assay [2], the percent effect was -0.297%.

In assay [1], `CC1=C(CC(=O)O)c2cc(F)ccc2/C1=C\c1ccc([S+](C)[O-])cc1` (stereo not drawn) [sulindac] showed a mCherry of 86.9%. In addition, in assay [2], the percent effect is -2.43%.

Turning to `Oc1cc(O)c(Cl)cn1` [gimeracil], the mCherry in assay [1] was found to be 92.2%. Further, in assay [2], the percent effect was -4.23%.

Take `CNCCc1ccccn1` [betahistine]: the mCherry in assay [1] was 113%. The percent effect in assay [2] is -6.74%.

Turning to `CCCNC(=O)NS(=O)(=O)c1ccc(Cl)cc1` [Chlorpropamide], the mCherry in assay [1] was found to be 90.7%. In addition, in assay [2], the percent effect is -4%.

In assay [1], `CCOC(=O)c1ccc(C#Cc2ccc3c(c2)C(C)(C)CCS3)nc1` [tazarotene] yielded a mCherry of 98.6%. In assay [2], the percent effect was -0.821%.

In assay [1], `CCc1ccc(C(=O)C(C)CN2CCCCC2)cc1` (stereo not drawn) [eperisone] yielded a mCherry of 112%. Further, the percent effect in assay [2] is 0.00764%.

On to `CCOC(=O)C1=C(COCCN)NC(C)=C(C(=O)OC)C1c1ccccc1Cl` (stereo not drawn) [amlodipine], for which the mCherry in assay [1] is 93.4% and 108%. For the same compound, in assay [2], the percent effect is -0.864% and -9.01%.

In assay [1], `CC(=O)N[C@@H](CC(=O)N[C@@H](CCC(=O)O)C(=O)O)C(=O)O` [spaglumic acid] yielded a mCherry of 84.7%. Besides, the percent effect in assay [2] is -0.222%.

As for `C[C@H](N[C@@H](CCc1ccccc1)C(=O)O)C(=O)N1CCC[C@H]1C(=O)O` [enalaprilat], the mCherry in assay [1] is 119% and 101%. Moreover, the percent effect in assay [2] was 0.813% and 2.64%.

Regarding `NS(=O)(=O)c1ccc(NC(=O)CCC(=O)O)cc1` [sulfasuccinamide], in assay [1], the mCherry amounted to 79%. For the same compound, in assay [2], the percent effect was -7.01%.

In turn, `CCCCc1nc(Cl)c(CO)n1Cc1ccc(-c2ccccc2-c2nnn[nH]2)cc1` [Losartan potassium] registered a mCherry in assay [1] of 240%. Also, the percent effect in assay [2] is -5.33%.

For `C[N+](C)([O-])CCC=C1c2ccccc2CCc2ccccc21` [amitriptylinoxide], in assay [1], the mCherry is 80.9%. Further, the percent effect in assay [2] was -2.66%.

In turn, `C(=C\c1ccccc1)/CN1CCN(C(c2ccccc2)c2ccccc2)CC1` [Stugeron] registered a mCherry in assay [1] of 110%. Also, the percent effect in assay [2] was -2.77%.

The compound `CCOC(=O)[C@H](CCc1ccccc1)N[C@@H](C)C(=O)N1CC2(C[C@H]1C(=O)O)SCCS2` [spirapril] came in with a mCherry in assay [1] of 75.7%. The percent effect in assay [2] is -4.47%.

Turning to `CCCCNc1ccc(C(=O)OCCN(C)C)cc1` [tetracaine], the mCherry in assay [1] was 93.3%. Also, the percent effect in assay [2] was -4.51%.

In the case of `O=C(CCCN1CCN2Cc3[nH]c4ccccc4c3CC2C1)c1ccc(F)cc1` (stereo not drawn) [biriperone], the mCherry in assay [1] is 53.8%. In addition, the percent effect in assay [2] is 0.574%.

Take `N=C(N)NC(=O)c1nc(Cl)c(N)nc1N`: the mCherry in assay [1] was 87.9%. In addition, the percent effect in assay [2] was -4.66%.

`CC(C)CC(=O)N[C@H](C(=O)N[C@H](C(=O)N[C@@H](CC(C)C)[C@@H](O)CC(=O)N[C@@H](C)C(=O)N[C@@H](CC(C)C)[C@@H](O)CC(=O)O)C(C)C)C(C)C` [pepstatin] gave a mCherry in assay [1] of 92.8%. For the same compound, the percent effect in assay [2] was -0.79%.

On to `CCN(CC)CCOc1ccc(C(O)(Cc2ccc(Cl)cc2)c2ccc(C)cc2)cc1` (stereo not drawn) [triparanol], for which the mCherry in assay [1] is 27.9%. The percent effect in assay [2] was -6.88%.

For the compound `CC(=O)OC(C)C[N+](C)(C)C` (stereo not drawn) [methacholine chloride], in assay [1], the mCherry was 96%. In addition, in assay [2], the percent effect is -3.17%.

As for `CC(C)(C)NCC(O)COc1ccccc1C#N` (stereo not drawn) [bunitrolol], the mCherry in assay [1] was determined as 71.6%. For the same compound, the percent effect in assay [2] came to 0.557%.

Take `CC/N=C(\NCC)NCCCC[C@H](NC(=O)[C@H](CC(C)C)NC(=O)[C@@H](CCCCN/C(=N/CC)NCC)NC(=O)[C@H](Cc1ccc(O)cc1)NC(=O)[C@H](CO)NC(=O)[C@@H](Cc1cccnc1)NC(=O)[C@@H](Cc1ccc(Cl)cc1)NC(=O)[C@@H](Cc1ccc2ccccc2c1)NC(C)=O)C(=O)N1CCC[C@H]1C(=O)N[C@H](C)C(N)=O` [ganirelix]: the mCherry in assay [1] is 105%. In addition, the percent effect in assay [2] was -3.24%.
